Measured values from patent US11034672B1, “Tyrosine kinase inhibitor compositions, methods of making and methods of use” (Black Diamond Therapeutics, Inc., priority 2018, dated 2021).
Some entries share one result that the patent states for a list of compounds.

The chains behind the UniProt entries cited, without tags or fusion partners. A line that says so, or that is headed by a name, gives the form on record, which may keep a tag or linker. Residues count along the entry.
UniProt P04626, 23-1255 S310F: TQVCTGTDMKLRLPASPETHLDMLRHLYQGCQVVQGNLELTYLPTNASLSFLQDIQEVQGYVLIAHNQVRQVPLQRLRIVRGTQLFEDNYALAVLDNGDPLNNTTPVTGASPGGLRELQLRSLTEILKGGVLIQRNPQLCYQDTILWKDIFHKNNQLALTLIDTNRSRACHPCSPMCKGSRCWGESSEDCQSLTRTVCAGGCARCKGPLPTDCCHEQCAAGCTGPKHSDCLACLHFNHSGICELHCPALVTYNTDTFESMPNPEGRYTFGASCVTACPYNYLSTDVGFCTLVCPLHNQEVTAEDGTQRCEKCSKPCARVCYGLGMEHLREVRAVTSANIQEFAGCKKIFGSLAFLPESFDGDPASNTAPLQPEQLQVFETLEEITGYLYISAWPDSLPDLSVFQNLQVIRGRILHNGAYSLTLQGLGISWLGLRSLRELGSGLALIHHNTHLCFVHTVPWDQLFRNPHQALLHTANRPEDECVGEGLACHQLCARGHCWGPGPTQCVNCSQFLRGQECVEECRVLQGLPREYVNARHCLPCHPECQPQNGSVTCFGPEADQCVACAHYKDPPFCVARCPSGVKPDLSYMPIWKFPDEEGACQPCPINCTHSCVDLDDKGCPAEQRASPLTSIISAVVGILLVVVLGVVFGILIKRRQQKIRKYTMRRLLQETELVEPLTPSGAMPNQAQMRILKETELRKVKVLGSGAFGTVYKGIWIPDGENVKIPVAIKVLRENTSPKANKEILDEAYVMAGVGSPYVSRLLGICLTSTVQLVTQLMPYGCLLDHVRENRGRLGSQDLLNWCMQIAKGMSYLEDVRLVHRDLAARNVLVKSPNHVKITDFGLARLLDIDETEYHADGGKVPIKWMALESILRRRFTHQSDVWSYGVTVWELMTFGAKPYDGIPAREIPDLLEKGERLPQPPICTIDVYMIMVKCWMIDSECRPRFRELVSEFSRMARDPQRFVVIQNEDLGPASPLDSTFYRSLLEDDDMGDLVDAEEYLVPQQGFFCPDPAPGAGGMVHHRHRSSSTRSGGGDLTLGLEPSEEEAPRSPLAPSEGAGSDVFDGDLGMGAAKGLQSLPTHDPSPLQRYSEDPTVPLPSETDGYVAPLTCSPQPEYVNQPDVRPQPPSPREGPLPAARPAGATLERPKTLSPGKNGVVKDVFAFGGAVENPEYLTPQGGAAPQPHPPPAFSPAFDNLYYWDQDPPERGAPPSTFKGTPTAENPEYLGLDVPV
UniProt P00533, with tags, fused parts or gaps DELINS30-297G: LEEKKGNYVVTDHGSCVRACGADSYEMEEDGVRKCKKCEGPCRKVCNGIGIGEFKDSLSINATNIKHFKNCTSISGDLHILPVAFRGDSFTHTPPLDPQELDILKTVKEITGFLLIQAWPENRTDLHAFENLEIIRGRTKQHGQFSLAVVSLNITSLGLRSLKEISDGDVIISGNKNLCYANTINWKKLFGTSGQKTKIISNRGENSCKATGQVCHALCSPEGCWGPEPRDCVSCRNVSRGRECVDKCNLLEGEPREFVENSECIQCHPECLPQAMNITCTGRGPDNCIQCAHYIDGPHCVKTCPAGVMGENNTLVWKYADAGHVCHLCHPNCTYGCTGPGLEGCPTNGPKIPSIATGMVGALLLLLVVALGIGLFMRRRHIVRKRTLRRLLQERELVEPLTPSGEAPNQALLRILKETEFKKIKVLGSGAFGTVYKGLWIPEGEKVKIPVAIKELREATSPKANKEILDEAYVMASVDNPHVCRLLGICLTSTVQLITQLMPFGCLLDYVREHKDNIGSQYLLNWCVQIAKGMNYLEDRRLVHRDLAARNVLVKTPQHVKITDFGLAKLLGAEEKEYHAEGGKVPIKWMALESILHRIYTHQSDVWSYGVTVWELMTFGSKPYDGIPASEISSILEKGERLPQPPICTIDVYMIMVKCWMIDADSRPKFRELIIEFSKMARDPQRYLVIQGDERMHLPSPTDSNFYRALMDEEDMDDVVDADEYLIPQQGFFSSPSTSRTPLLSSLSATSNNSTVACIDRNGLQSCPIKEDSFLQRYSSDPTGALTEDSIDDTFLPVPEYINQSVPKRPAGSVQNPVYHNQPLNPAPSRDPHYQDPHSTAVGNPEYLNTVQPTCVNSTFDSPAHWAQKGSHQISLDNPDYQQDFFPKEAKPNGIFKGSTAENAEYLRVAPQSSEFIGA

What was measured:
EGFR V3 [1] = test: Activity for inhibiting EGFR (Table A), EGFR V3 (EGFR-Viii); type: cell-based, Homo sapiens; conditions: selectivity versus wild-type EGFR
HER2 S310F = target: T1, HER2 S310F (Homo sapiens, UniProt P04626, S310F); test: Activity for inhibiting HER2 (Table B), HER2 S310F; type: cell-based; conditions: text lists of compounds
T1 construct: expressed in transfected cells; host or cells: BaF3 (murine pro-B)
Procedure: EC50 values were determined with the same application.

EGFR V3 [2] = target: T2, EGFR V3 (Homo sapiens, UniProt P00533, DELINS30-297G); test: Activity for inhibiting EGFR (Table A), EGFR V3 (EGFR-Viii); type: cell-based; conditions: text lists of compounds
T2 construct: expressed in transfected cells; host or cells: BaF3 (murine pro-B), retroviral pMXs-IRES-Blasticidin

SMILES	fold greater inhibition of EGFR-Viii relative to wild-type EGFR (EGFR V3 [1])	IC50 (HER2 S310F)	IC50 (EGFR V3 [2])
C=CC(=O)Nc1cc2c(Nc3ccc(OCc4ccccn4)c(Cl)c3)ncnc2cc1N(C)CCN1CCOCC1 [compound 7]	at least 5 fold		
C=CC(=O)Nc1cc2c(Nc3ccc(OCc4ccccn4)c(Cl)c3)ncnc2cc1N(C)CCCN1CCOCC1 [compound 12]	at least 5 fold		
C=CC(=O)Nc1cc2c(Nc3ccc(OCc4ccccn4)c(Cl)c3)ncnc2cc1OCC1CCCN1C (stereo not drawn) [compound 14]	at least 5 fold	≤ 0.1 µM	
C=CC(=O)Nc1cc2c(Nc3ccc(OCc4ccccn4)c(Cl)c3)ncnc2cc1OCCCN1CC2CC1CO2 (stereo not drawn) [compound 20]	at least 5 fold		
C=CC(=O)Nc1cc2c(Nc3ccc(OCc4cccc(C(F)(F)F)n4)c(Cl)c3)ncnc2cc1OCCN1CCOCC1 [compound 23]	at least 5 fold		
C=CC(=O)Nc1cc2c(Nc3ccc(Oc4cccc(Cl)c4)cc3)ncnc2cc1OCCN1CCOCC1 [compound 37]	at least 5 fold	≤ 0.1 µM	
C=CC(=O)Nc1cc2c(Nc3ccc(OCc4ccccn4)c(Cl)c3)ncnc2cc1N1CCN2CCC1C2 (stereo not drawn) [compound 43]	at least 5 fold		
C=CC(=O)Nc1cc2c(Nc3ccc(OCc4ccccn4)c(Cl)c3)ncnc2cc1N1CC2CCN(C)C2C1 (stereo not drawn) [compound 49]	at least 5 fold		
C=CC(=O)Nc1cc2c(Nc3ccc(OCc4ccccn4)c(Cl)c3)ncnc2cc1N1CCC(N(C)C)C1 (stereo not drawn) [compound 64]	at least 5 fold		
C=CC(=O)Nc1cc2c(Nc3ccc(Oc4ccc(C)nc4)c(C)c3)ncnc2cc1OC1CCN(C)C1 (stereo not drawn) [compound 68]	at least 5 fold	≤ 0.1 µM	
CC#CC(=O)Nc1cc2c(Nc3ccc(OCc4ccccn4)c(Cl)c3)ncnc2cc1OCCN1CCN(C)CC1 [compound 70]	at least 5 fold		
C=CC(=O)Nc1cc2c(Nc3ccc(Oc4cccnc4)cc3)ncnc2cc1OCCN1CCOCC1 [compound 75]	at least 5 fold		
C=CC(=O)Nc1cc2c(Nc3ccc(OCc4ccccn4)c(Cl)c3)ncnc2cc1OCCN1CCS(=O)(=O)CC1 [compound 125]	at least 5 fold		
C=CC(=O)Nc1cc2c(Nc3ccc(OCc4cccc(C)n4)c(Cl)c3)ncnc2cc1OCCN1CCOCC1 [compound 128]	at least 5 fold		
C=CC(=O)Nc1cc2c(Nc3ccc(OCc4cccc(C)n4)c(Cl)c3)ncnc2cc1OCCN1CCN(C)CC1 [compound 137]		≤ 0.1 µM	≤ 0.1 µM
C=CC(=O)Nc1cc2c(Nc3cc(Cl)c(OCc4cccc(F)c4)cc3F)ncnc2cc1OCCN1CC2CCC(C1)O2 [compound 147]		≤ 0.1 µM	≤ 0.1 µM
C=CC(=O)Nc1cc2c(Nc3ccc(OCc4cccc(F)n4)c(Cl)c3)ncnc2cc1OCCCN1CC(OC)C1 [compound 155]	at least 5 fold		
C=CC(=O)Nc1cc2c(Nc3ccc(OCc4cccc(F)n4)c(Cl)c3)ncnc2cc1OCCN1CC2CCC(C1)O2 [compound 156]		≤ 0.1 µM	≤ 0.1 µM
C=CC(=O)Nc1cc2c(Nc3ccc(OCc4cccnn4)c(Cl)c3)ncnc2cc1OCCN1CCOCC1 [compound 171]		≤ 0.1 µM	≤ 0.1 µM
C=CC(=O)Nc1cc2c(Nc3ccc(OCc4cccnn4)c(Cl)c3)ncnc2cc1OCCN1CC2CCC(C1)O2 [compound 173]		≤ 0.1 µM	≤ 0.1 µM
C=CC(=O)Nc1cc2c(Nc3ccc(OCc4cccnn4)c(Cl)c3)ncnc2cc1OCCN1CC(OC)C1 [compound 174]		≤ 0.1 µM	≤ 0.1 µM
